Measurements reported in PubChem BioAssay AID686938 (Drosophila RNAi Screening Center, 2013)
Screen: 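Fly genes required for calcium entry once internal stores are emptied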 (primary screen). System: Drosophila S2R+ cells. Knock-down reagent: long dsRNA against Drosophila genes, about 0.25 µg dsRNA per well, roughly 10,000 cells. Timing: 5 days of knock-down before the calcium assay. Conditions: thapsigargin (SERCA pump blocker) to empty calcium stores; entry signal taken 4 min after adding it. Measurement: 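Duplicate raw fluo-4 intensities per well from a plate reader, at rest and four minutes after thapsigargin emptied calcium stores; entry-to-rest ratio filled for only some wells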. Scale: calcium entry signal: higher = stronger calcium signal after store depletion; entry to resting ratio: higher = more calcium entry relative to resting level; resting calcium signal: higher = higher resting calcium signal. Active means: 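Hit if the duplicate-averaged plate z-score for entry over resting signal is under −3; wells with weak total dye signal (Fmax z < −2) or more than 5 off-targets removed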. Meaning of the calls: active = strongly reduced calcium entry; inactive = no strong reduction.
The deposit covers about 23,000 reagents; shown is a random part of those with a known target gene and a result. Over the whole deposit, 75 (0.33%) are marked active. 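Raw plate signals without normalisation; calls rest on plate z-scores that were not deposited; ratio present for only 364 wells.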 Reagents against one gene are numbered here. A plus sign joins genes that one reagent is predicted to hit. The record does not give: the dose of the treatment.

target gene | reagent | calcium entry signal, replicate 1 (fluorescence units) | calcium entry signal, replicate 2 (fluorescence units) | entry to resting ratio | resting calcium signal, replicate 1 (fluorescence units) | resting calcium signal, replicate 2 (fluorescence units) | call
RnpS1 (RNA-binding protein S1) | 1 | 4.13e7 | 4.57e7 | – | 1.81e7 | 2.15e7 | inactive
CG34039 | 1 | 3.30e7 | 4.08e7 | – | 1.54e7 | 1.97e7 | inactive
CG14464 | 1 | 3.13e7 | 3.98e7 | – | 1.62e7 | 1.84e7 | inactive
CG33140 | 1 | 3.95e7 | – | – | 2.13e7 | – | inactive
CG30056 | 1 | 3.17e7 | 4.19e7 | – | 1.69e7 | 1.96e7 | inactive
CG14969 | 1 | 4.23e7 | 3.05e7 | – | 2.77e7 | 1.49e7 | inactive
Grx1 (Glutaredoxin 1) | 1 | 1.86e7 | 5.09e7 | – | 1.04e7 | 1.91e7 | inactive
Pc (Polycomb) | 1 | 1.81e7 | 2.97e7 | – | 9.73e6 | 1.53e7 | inactive
CG12384 | 1 | 2.54e7 | 3.20e7 | – | 1.17e7 | 1.63e7 | inactive
CG31709 | 1 | 3.04e7 | 4.11e7 | – | 1.48e7 | 1.70e7 | inactive
Mec2 | 1 | 4.95e7 | 5.60e7 | – | 2.65e7 | 2.40e7 | inactive
capu (cappuccino) | 1 | 2.61e7 | 3.97e7 | – | 1.44e7 | 1.75e7 | inactive
capu (cappuccino) | 2 | 2.32e7 | 4.00e7 | – | 1.35e7 | 1.87e7 | inactive
capu (cappuccino) | 3 | 3.78e7 | 3.20e7 | – | 1.88e7 | 1.60e7 | inactive
capu (cappuccino) | 4 | 4.39e7 | – | – | 2.41e7 | – | inactive
CG6277 | 1 | 3.44e7 | 4.98e7 | – | 1.72e7 | 2.17e7 | inactive
Rev1 (DNA polymerase Rev1) | 1 | 4.52e7 | 3.85e7 | – | 2.17e7 | 1.76e7 | inactive
CG11885 | 1 | 2.52e7 | 2.73e7 | – | 1.30e7 | 1.39e7 | inactive
Taz (Tafazzin) | 1 | 3.46e7 | 4.22e7 | – | 1.73e7 | 1.89e7 | inactive
Taz (Tafazzin) | 2 | 4.27e7 | 3.25e7 | – | 2.30e7 | 1.57e7 | inactive
Nnp-1 | 1 | 2.07e7 | 1.41e7 | – | 1.10e7 | 7.72e6 | inactive
CG5151 | 1 | 3.81e7 | 4.85e7 | – | 2.06e7 | 2.17e7 | inactive
CG5151 | 2 | 5.03e7 | 3.32e7 | – | 2.43e7 | 1.46e7 | inactive
CG7568 | 1 | 3.24e7 | 5.62e7 | – | 1.70e7 | 2.08e7 | inactive
CG6296 | 1 | 3.00e7 | 3.57e7 | – | 1.38e7 | 1.69e7 | inactive
CG14234 | 1 | 2.74e7 | 4.01e7 | – | 1.38e7 | 1.73e7 | inactive
CG14234 | 2 | 4.00e7 | 3.51e7 | – | 1.86e7 | 1.44e7 | inactive
CG32109 | 1 | 2.28e7 | 3.56e7 | – | 1.22e7 | 1.51e7 | inactive
crn (crooked neck) | 1 | 2.15e7 | 1.77e7 | 1.3 | 1.63e7 | 1.42e7 | inactive
crn (crooked neck) | 2 | 2.46e7 | 2.78e7 | 1.5 | 1.59e7 | 1.81e7 | inactive
crn (crooked neck) | 3 | 1.87e7 | 2.31e7 | – | 1.39e7 | 1.44e7 | inactive
mRpS2 (mitochondrial ribosomal protein S2) | 1 | 2.53e7 | 2.55e7 | – | 1.18e7 | 1.09e7 | inactive
stwl (stonewall) | 1 | 2.24e7 | 3.35e7 | – | 1.12e7 | 2.13e7 | inactive
klar (klarsicht) | 1 | 4.87e7 | 3.65e7 | – | 2.16e7 | 1.94e7 | inactive
klar (klarsicht) | 2 | 2.08e7 | 2.01e7 | – | 1.12e7 | 9.35e6 | inactive
CG11134 | 1 | 3.53e7 | 2.55e7 | – | 1.98e7 | 1.35e7 | inactive
Snap25 (Synaptosomal-associated protein 25kDa) | 1 | 4.24e7 | 4.60e7 | – | 2.13e7 | 2.08e7 | inactive
Snap25 (Synaptosomal-associated protein 25kDa) | 2 | 8.15e7 | 4.61e7 | – | 2.97e7 | 2.18e7 | inactive
CG34288 | 1 | 4.12e7 | 3.56e7 | – | 2.12e7 | 1.65e7 | inactive
Tdg (Thymine DNA glycosylase) | 1 | 6.51e7 | 3.98e7 | – | 2.83e7 | 1.70e7 | inactive
Tdg (Thymine DNA glycosylase) | 2 | 4.13e7 | 5.48e7 | 2 | 2.11e7 | 2.11e7 | inactive
z (zeste) | 1 | 3.62e7 | 5.35e7 | – | 1.88e7 | 2.44e7 | inactive
z (zeste) | 2 | 3.11e7 | 4.13e7 | – | 1.56e7 | 1.82e7 | inactive
CG7264 | 1 | 3.01e7 | 4.18e7 | – | 1.51e7 | 1.79e7 | inactive
Rgl (Ral guanine nucleotide dissociation stimulator-like) | 1 | 3.11e7 | 3.48e7 | – | 1.63e7 | 1.58e7 | inactive
CG17359 | 1 | 4.56e7 | 4.17e7 | – | 1.93e7 | 1.91e7 | inactive
CG42367 | 1 | 4.12e7 | 3.73e7 | – | 2.38e7 | 1.89e7 | inactive
CG3014 | 1 | 4.10e7 | 3.33e7 | – | 1.97e7 | 1.63e7 | inactive
CG42307 + mus312 | 1 | 2.27e7 | 3.41e7 | – | 1.11e7 | 1.50e7 | inactive
Pvf2 (PDGF- and VEGF-related factor 2) | 1 | 4.37e7 | 2.90e7 | – | 2.35e7 | 1.82e7 | inactive
Pvf2 (PDGF- and VEGF-related factor 2) | 2 | 3.67e7 | 3.68e7 | – | 2.10e7 | 2.06e7 | inactive
Kdm2 (Lysine demethylase 2) | 1 | 3.32e7 | 4.21e7 | – | 1.25e7 | 1.65e7 | inactive
CG32281 | 1 | 4.01e7 | 2.51e7 | – | 2.83e7 | 1.10e7 | inactive
lncRNA:CR32661 + lncRNA:CR43157 | 1 | 4.67e7 | 6.09e7 | – | 2.23e7 | 2.90e7 | inactive
CG12061 | 1 | 4.06e7 | 4.46e7 | – | 2.11e7 | 2.05e7 | inactive
CG9040 | 1 | 6.05e7 | 5.07e7 | – | 2.46e7 | 2.04e7 | inactive
dpr12 (defective proboscis extension response 12) | 1 | 2.08e7 | 4.35e7 | – | 1.22e7 | 1.96e7 | inactive
dpr12 (defective proboscis extension response 12) | 2 | 4.23e7 | 5.52e7 | – | 2.29e7 | 2.33e7 | inactive
dpr12 (defective proboscis extension response 12) | 3 | 3.77e7 | 4.26e7 | – | 1.82e7 | 1.81e7 | inactive

A portion taken from the entries so far, as a working copy:
target gene | reagent | calcium entry signal, replicate 1 (fluorescence units) | calcium entry signal, replicate 2 (fluorescence units) | entry to resting ratio | resting calcium signal, replicate 1 (fluorescence units) | resting calcium signal, replicate 2 (fluorescence units) | call
Tdg (Thymine DNA glycosylase) | 2 | 4.13e7 | 5.48e7 | 2 | 2.11e7 | 2.11e7 | inactive
z (zeste) | 1 | 3.62e7 | 5.35e7 | – | 1.88e7 | 2.44e7 | inactive
z (zeste) | 2 | 3.11e7 | 4.13e7 | – | 1.56e7 | 1.82e7 | inactive
CG7264 | 1 | 3.01e7 | 4.18e7 | – | 1.51e7 | 1.79e7 | inactive
Rgl (Ral guanine nucleotide dissociation stimulator-like) | 1 | 3.11e7 | 3.48e7 | – | 1.63e7 | 1.58e7 | inactive
CG17359 | 1 | 4.56e7 | 4.17e7 | – | 1.93e7 | 1.91e7 | inactive
CG42367 | 1 | 4.12e7 | 3.73e7 | – | 2.38e7 | 1.89e7 | inactive
CG3014 | 1 | 4.10e7 | 3.33e7 | – | 1.97e7 | 1.63e7 | inactive
